# According to the supplement of paper PMC12823440, “Inhibitors supercharge kinase turnover through native proteolytic circuits” (Nature, 2025):
# Chains of the proteins cited; added tags and fusions are not shown.
# UniProt P29317, whole entry: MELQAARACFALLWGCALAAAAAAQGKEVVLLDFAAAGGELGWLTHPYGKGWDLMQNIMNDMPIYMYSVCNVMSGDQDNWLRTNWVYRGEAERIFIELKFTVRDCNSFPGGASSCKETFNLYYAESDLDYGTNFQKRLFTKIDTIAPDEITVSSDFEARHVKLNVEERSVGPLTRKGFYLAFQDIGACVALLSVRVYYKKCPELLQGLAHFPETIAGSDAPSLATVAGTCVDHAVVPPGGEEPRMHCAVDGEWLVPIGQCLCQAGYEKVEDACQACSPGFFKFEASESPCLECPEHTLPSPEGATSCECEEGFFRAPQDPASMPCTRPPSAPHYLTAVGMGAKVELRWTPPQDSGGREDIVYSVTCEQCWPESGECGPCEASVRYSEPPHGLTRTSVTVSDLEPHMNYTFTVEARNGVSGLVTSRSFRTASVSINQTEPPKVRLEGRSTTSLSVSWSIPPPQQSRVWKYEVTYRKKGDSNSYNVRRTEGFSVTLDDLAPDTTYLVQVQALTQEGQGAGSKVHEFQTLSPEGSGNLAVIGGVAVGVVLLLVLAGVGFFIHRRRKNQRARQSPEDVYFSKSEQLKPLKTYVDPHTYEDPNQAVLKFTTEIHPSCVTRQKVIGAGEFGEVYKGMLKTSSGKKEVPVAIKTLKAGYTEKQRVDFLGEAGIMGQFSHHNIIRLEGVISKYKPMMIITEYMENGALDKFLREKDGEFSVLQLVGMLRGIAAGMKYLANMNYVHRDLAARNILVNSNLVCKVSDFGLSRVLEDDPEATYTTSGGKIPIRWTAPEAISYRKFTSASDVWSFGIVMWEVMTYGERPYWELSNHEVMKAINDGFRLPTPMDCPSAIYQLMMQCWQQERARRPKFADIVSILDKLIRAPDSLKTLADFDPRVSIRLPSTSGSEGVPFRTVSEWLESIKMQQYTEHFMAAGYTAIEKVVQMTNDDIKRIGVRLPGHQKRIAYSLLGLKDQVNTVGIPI
# Structures can show the parent of a compound that is named as a salt. The list shows a part of the results. Hit calls seldom repeat between salt and free forms of one compound.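 In K562 cells expressing nanoluciferase-fused kinases, luminescence was recorded at 4 h intervals between 2 and 18 h, normalized as percent of control with DMSO at 100% and a positive control at 0%. A significant (2 sigma) signal drop marks a time point as decreased. The authors' rule for a hit is not shown and takes in more than the number of time points.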
# Molecular target: EGFR_T790M (UniProt P00533)
# Experiment: kinase-Nluc reporter destabilization hit call (1 = scored as downregulated) (binary); higher = compound decreases kinase abundance
# Settings: K562; 2-18 h
row,SMILES,kinase-Nluc reporter destabilization hit call
1,O=c1[nH]c2ccccc2n1C1CCN(Cc2ccc(-c3[nH]c4cc5ncnc5cc4nc3-c3ccccc3)cc2)CC1 [AKT inhibitor VIII] (2.5 µM),inactive: 0
2,C[C@H]1CC[C@]2(NC1)O[C@H]1C[C@H]3[C@@H]4CC[C@H]5C[C@@H](O[C@@H]6O[C@H](CO)[C@H](O[C@@H]7O[C@H](CO)[C@@H](O)[C@H](O[C@@H]8OC[C@@H](O)[C@H](O)[C@H]8O)[C@H]7O[C@@H]7O[C@H](CO)[C@@H](O)[C@H](O)[C@H]7O)[C@H](O)[C@H]6O)CC[C@]5(C)[C@H]4CC[C@]3(C)[C@H]1[C@@H]2C [Tomatine] (2.5 µM),inactive: 0
3,C=C[C@H]1CN2CC[C@]3(C(=O)Nc4ccccc43)[C@@H]2C[C@@H]1/C(=C\OC)C(=O)OC [Corynoxeine] (2 µM),inactive: 0
4,C=CC(=O)Nc1ccc2[nH]c(=O)n(C3CCN(Cc4ccc(-c5nc6cc[nH]c(=O)c6cc5-c5ccccc5)cc4)CC3)c2c1 [Borussertib] (10 µM),inactive: 0
5,CCOC(=O)c1c(/C(C#N)=C\N)c2ccc(Cl)c(Cl)c2n1C (10 µM),inactive: 0
6,CC(=O)OC(C)(C)/C=C/C(=O)[C@](C)(O)[C@H]1[C@H](O)C[C@@]2(C)[C@@H]3CC=C4[C@@H](C=C(O)C(=O)C4(C)C)[C@]3(C)C(=O)C[C@]12C [Cucurbitacin E] (2.5 µM),inactive: 0
7,Cc1[nH]ncc1-c1cc2nc([C@H]3CC4CCN3CC4)[nH]c(=O)c2s1 [(R)-Simurosertib] (10 µM),inactive: 0
8,C[C@H]1CC[C@]2(NC1)O[C@H]1C[C@H]3[C@@H]4CC[C@H]5C[C@@H](O)CC[C@]5(C)[C@H]4CC[C@]3(C)[C@H]1[C@@H]2C [Tomatidine] (2 µM),inactive: 0
9,O=Cc1cn(Cc2ccc(Cl)cc2)c2ccccc12 [Oncrasin-1] (10 µM),inactive: 0
10,O=[N+]([O-])/C=C/c1ccc2c(c1)OCO2 (2.5 µM),inactive: 0
11,CCN1CCN(C(=O)Cc2ccc(Nc3ncc(F)c(Nc4ccc(C(=O)Nc5ccccc5Cl)cc4)n3)cc2)CC1 (2.5 µM),inactive: 0
12,COc1ccc2c(c[n+](C)c3c4cc5c(cc4ccc23)OCO5)c1OC [Chelerythrine (chloride)] (10 µM),inactive: 0
13,COC[C@H]1OC(=O)c2coc3c2[C@@]1(C)C1=C(C3=O)[C@@H]2CCC(=O)[C@@]2(C)C[C@H]1OC(C)=O [Wortmannin] (2.5 µM),inactive: 0
14,C[C@H]1CC[C@]2(NC1)O[C@H]1C[C@H]3[C@@H]4CC[C@H]5C[C@@H](O)CC[C@]5(C)[C@H]4CC[C@]3(C)[C@H]1[C@@H]2C [Tomatidine (hydrochloride)] (10 µM),inactive: 0
15,COc1ccc(/C=C/c2cc(OC)c(OC)c(OC)c2)cc1 (2.5 µM),inactive: 0
16,O=c1cc(O)c2ccccc2o1 [4-Hydroxycoumarin] (10 µM),inactive: 0
17,C=CC(=O)N[C@H]1C=C(C)c2c(-c3cnc4ccccc4c3)c3c(N)ncnc3n2C1 (10 µM),inactive: 0
18,N#CC(C#N)=Cc1ccc([N+](=O)[O-])c(O)c1 (10 µM),inactive: 0
19,O=C(O)c1sc2cc(Cl)ccc2c1Cl (10 µM),inactive: 0
20,Cc1n[nH]cc1-c1cc2nc([C@@H]3CC4CCN3CC4)[nH]c(=O)c2s1 [Simurosertib] (2.5 µM),inactive: 0
21,Cn1cc(C2=C(c3cn(C4CCN(Cc5ccccn5)CC4)c4ccccc34)C(=O)NC2=O)c2ccccc21 [Enzastaurin] (10 µM),inactive: 0
22,CN(C)C(=O)c1ccc(Cn2c(C(=O)O)cc3c(Br)cc(Sc4ccc(Cl)c(Cl)c4)cc32)cc1 [Rheb inhibitor NR1] (10 µM),inactive: 0
23,C/C(O)=C(\C#N)C(=O)Nc1cc(Br)ccc1Br (10 µM),inactive: 0
24,O=C1c2ccccc2C(=O)c2c1cccc2-c1cnn(C2CCNCC2)c1 [PDK4-IN-1 (hydrochloride)] (10 µM),inactive: 0
25,COc1ccc(N(C(=O)Oc2c(C)cccc2C)c2ccnc(Nc3ccc(N4CCN(C)CC4)cc3)n2)c(OC)c1 (2.5 µM),inactive: 0
26,C[C@@H]1CC[C@H]2[C@@H](C)C(=O)O[C@@H]3O[C@@]4(C)CC[C@@H]1[C@]32OO4 [Artemisinin] (10 µM),inactive: 0
27,CC(C)(C)c1cc(C=C(C#N)C#N)cc(Br)c1O (2.5 µM),inactive: 0
28,CC1=C[C@]23C(=O)[C@@H](C=C(CO)[C@@H](O)[C@]2(O)[C@H]1O)[C@H]1[C@@H](C[C@H]3C)C1(C)C [Ingenol] (10 µM),inactive: 0

# Molecular target: EPHA2 (UniProt P29317)
# Experiment: as above
# Settings: K562; 2-18 h
row,SMILES,kinase-Nluc reporter destabilization hit call
1,O=c1[nH]c2ccccc2n1C1CCN(Cc2ccc(-c3[nH]c4cc5ncnc5cc4nc3-c3ccccc3)cc2)CC1 [AKT inhibitor VIII] (2.5 µM),inactive: 0
2,C[C@H]1CC[C@]2(NC1)O[C@H]1C[C@H]3[C@@H]4CC[C@H]5C[C@@H](O[C@@H]6O[C@H](CO)[C@H](O[C@@H]7O[C@H](CO)[C@@H](O)[C@H](O[C@@H]8OC[C@@H](O)[C@H](O)[C@H]8O)[C@H]7O[C@@H]7O[C@H](CO)[C@@H](O)[C@H](O)[C@H]7O)[C@H](O)[C@H]6O)CC[C@]5(C)[C@H]4CC[C@]3(C)[C@H]1[C@@H]2C [Tomatine] (2.5 µM),inactive: 0
3,C=C[C@H]1CN2CC[C@]3(C(=O)Nc4ccccc43)[C@@H]2C[C@@H]1/C(=C\OC)C(=O)OC [Corynoxeine] (2 µM),inactive: 0
4,C=CC(=O)Nc1ccc2[nH]c(=O)n(C3CCN(Cc4ccc(-c5nc6cc[nH]c(=O)c6cc5-c5ccccc5)cc4)CC3)c2c1 [Borussertib] (10 µM),inactive: 0
5,CCOC(=O)c1c(/C(C#N)=C\N)c2ccc(Cl)c(Cl)c2n1C (10 µM),inactive: 0
6,CC(=O)OC(C)(C)/C=C/C(=O)[C@](C)(O)[C@H]1[C@H](O)C[C@@]2(C)[C@@H]3CC=C4[C@@H](C=C(O)C(=O)C4(C)C)[C@]3(C)C(=O)C[C@]12C [Cucurbitacin E] (2.5 µM),inactive: 0
7,Cc1[nH]ncc1-c1cc2nc([C@H]3CC4CCN3CC4)[nH]c(=O)c2s1 [(R)-Simurosertib] (10 µM),inactive: 0
8,C[C@H]1CC[C@]2(NC1)O[C@H]1C[C@H]3[C@@H]4CC[C@H]5C[C@@H](O)CC[C@]5(C)[C@H]4CC[C@]3(C)[C@H]1[C@@H]2C [Tomatidine] (2 µM),inactive: 0
9,O=Cc1cn(Cc2ccc(Cl)cc2)c2ccccc12 [Oncrasin-1] (10 µM),inactive: 0
10,O=[N+]([O-])/C=C/c1ccc2c(c1)OCO2 (2.5 µM),inactive: 0
11,CCN1CCN(C(=O)Cc2ccc(Nc3ncc(F)c(Nc4ccc(C(=O)Nc5ccccc5Cl)cc4)n3)cc2)CC1 (2.5 µM),inactive: 0
12,COc1ccc2c(c[n+](C)c3c4cc5c(cc4ccc23)OCO5)c1OC [Chelerythrine (chloride)] (10 µM),inactive: 0
13,COC[C@H]1OC(=O)c2coc3c2[C@@]1(C)C1=C(C3=O)[C@@H]2CCC(=O)[C@@]2(C)C[C@H]1OC(C)=O [Wortmannin] (2.5 µM),inactive: 0
14,C[C@H]1CC[C@]2(NC1)O[C@H]1C[C@H]3[C@@H]4CC[C@H]5C[C@@H](O)CC[C@]5(C)[C@H]4CC[C@]3(C)[C@H]1[C@@H]2C [Tomatidine (hydrochloride)] (10 µM),inactive: 0
15,COc1ccc(/C=C/c2cc(OC)c(OC)c(OC)c2)cc1 (2.5 µM),inactive: 0
16,O=c1cc(O)c2ccccc2o1 [4-Hydroxycoumarin] (10 µM),inactive: 0
17,C=CC(=O)N[C@H]1C=C(C)c2c(-c3cnc4ccccc4c3)c3c(N)ncnc3n2C1 (10 µM),inactive: 0
18,N#CC(C#N)=Cc1ccc([N+](=O)[O-])c(O)c1 (10 µM),inactive: 0
19,O=C(O)c1sc2cc(Cl)ccc2c1Cl (10 µM),inactive: 0
20,Cc1n[nH]cc1-c1cc2nc([C@@H]3CC4CCN3CC4)[nH]c(=O)c2s1 [Simurosertib] (2.5 µM),inactive: 0
21,Cn1cc(C2=C(c3cn(C4CCN(Cc5ccccn5)CC4)c4ccccc34)C(=O)NC2=O)c2ccccc21 [Enzastaurin] (10 µM),inactive: 0
22,CN(C)C(=O)c1ccc(Cn2c(C(=O)O)cc3c(Br)cc(Sc4ccc(Cl)c(Cl)c4)cc32)cc1 [Rheb inhibitor NR1] (10 µM),inactive: 0
23,C/C(O)=C(\C#N)C(=O)Nc1cc(Br)ccc1Br (10 µM),inactive: 0
24,O=C1c2ccccc2C(=O)c2c1cccc2-c1cnn(C2CCNCC2)c1 [PDK4-IN-1 (hydrochloride)] (10 µM),inactive: 0
25,COc1ccc(N(C(=O)Oc2c(C)cccc2C)c2ccnc(Nc3ccc(N4CCN(C)CC4)cc3)n2)c(OC)c1 (2.5 µM),inactive: 0
26,C[C@@H]1CC[C@H]2[C@@H](C)C(=O)O[C@@H]3O[C@@]4(C)CC[C@@H]1[C@]32OO4 [Artemisinin] (10 µM),inactive: 0
27,CC(C)(C)c1cc(C=C(C#N)C#N)cc(Br)c1O (2.5 µM),inactive: 0
28,CC1=C[C@]23C(=O)[C@@H](C=C(CO)[C@@H](O)[C@]2(O)[C@H]1O)[C@H]1[C@@H](C[C@H]3C)C1(C)C [Ingenol] (10 µM),inactive: 0
